Results are given in words; binding and its absence hold for the method and conditions named. Some binding calls cover weakened binding; strength is not graded here. For part of these data: Sequences can lack the tags named with a protein.
Tests used:
[1] = target: T1, FLRT3-His monomeric fusion protein (Homo sapiens (Human)) (UniProt Q9NZU0); test: Octet (FIG. 18)
T1 sequence: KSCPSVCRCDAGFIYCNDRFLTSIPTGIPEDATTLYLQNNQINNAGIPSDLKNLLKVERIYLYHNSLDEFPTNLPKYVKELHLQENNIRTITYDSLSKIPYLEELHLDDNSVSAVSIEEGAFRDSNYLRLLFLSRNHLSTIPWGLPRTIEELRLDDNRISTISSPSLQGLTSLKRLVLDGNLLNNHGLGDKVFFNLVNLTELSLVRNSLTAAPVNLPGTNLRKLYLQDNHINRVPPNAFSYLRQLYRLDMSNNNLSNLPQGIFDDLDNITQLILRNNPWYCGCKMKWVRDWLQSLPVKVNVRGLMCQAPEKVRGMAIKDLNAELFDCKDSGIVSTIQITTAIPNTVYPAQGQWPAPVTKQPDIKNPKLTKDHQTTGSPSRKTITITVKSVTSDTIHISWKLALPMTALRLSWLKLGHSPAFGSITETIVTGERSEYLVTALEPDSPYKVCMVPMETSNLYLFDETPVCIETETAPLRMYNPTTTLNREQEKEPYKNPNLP

[2] = target: T1, FLRT3-His monomeric fusion protein (Homo sapiens (Human)); test: Octet, FLRT3 antibodies and FLRT3 monomer
[3] = target: human FLRT3 on cells (human) (UniProt Q9NZU0); test: flow cytometry, A549 cells, 14B7 against Ctrl G4P
[4] = target: human FLRT3 on cells (human) (UniProt Q9NZU0); test: flow cytometry, MCF7 cells, 14B7 against Ctrl G4P
[5] = target: human FLRT3 on cells (human) (UniProt Q9NZU0); test: flow cytometry, SKOV3 cells, 14B7 against Ctrl G4P
[6] = target: human FLRT3 on cells (human) (UniProt Q9NZU0); test: flow cytometry, SAOS2 cells, 14B7 against Ctrl G4P
[7] = target: human FLRT3 on cells (human) (UniProt Q9NZU0); test: flow cytometry, 624 MEL cells, 14B7 against Ctrl G4P
[8] = target: human FLRT3 on cells (human) (UniProt Q9NZU0); test: flow cytometry, HT29-OKT3 cells, 14B7 against Ctrl G4P
[9] = target: T1, FLRT3-His monomeric fusion protein (Homo sapiens (Human)); test: kinetic affinity measurement with FLRT3-His monomer (Table 1)
[10] = target: T2, mouse FLRT3 on transiently transfected 293T cells (mouse) (UniProt Q8BGT1); test: flow cytometry on mFLRT3 transfected cells (legend of FIG. 13)
T2 sequence: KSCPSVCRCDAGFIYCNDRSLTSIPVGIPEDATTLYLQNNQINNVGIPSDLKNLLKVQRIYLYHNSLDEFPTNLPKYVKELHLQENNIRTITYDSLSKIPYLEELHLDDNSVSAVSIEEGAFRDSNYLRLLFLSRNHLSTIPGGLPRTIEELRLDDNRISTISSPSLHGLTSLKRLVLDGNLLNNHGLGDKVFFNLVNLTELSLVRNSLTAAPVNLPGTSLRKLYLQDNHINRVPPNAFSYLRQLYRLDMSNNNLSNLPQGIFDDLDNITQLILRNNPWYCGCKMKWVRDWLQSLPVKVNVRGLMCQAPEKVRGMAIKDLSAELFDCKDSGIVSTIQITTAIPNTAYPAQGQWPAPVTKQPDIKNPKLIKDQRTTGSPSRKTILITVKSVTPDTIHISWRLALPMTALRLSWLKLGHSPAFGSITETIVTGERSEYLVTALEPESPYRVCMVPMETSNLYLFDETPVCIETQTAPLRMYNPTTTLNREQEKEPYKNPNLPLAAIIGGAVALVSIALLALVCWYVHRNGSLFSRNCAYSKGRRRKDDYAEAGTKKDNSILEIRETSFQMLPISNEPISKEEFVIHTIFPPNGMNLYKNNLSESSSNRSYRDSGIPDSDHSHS

[11] = target: human FLRT3 on cells (human) (UniProt Q9NZU0); test: flow cytometry, HEK293T-OKT3 cells, 14B7 against Ctrl G4P
[12] = target: T2, mouse FLRT3 on transiently transfected 293T cells (mouse); test: flow cytometry on 293T cells transiently transfected with mFLRT3
[13] = target: human FLRT3 on cells (human) (UniProt Q9NZU0); test: flow cytometry (AF647 MFI), A549 cells with endogenous hFLRT3
[14] = target: human FLRT3 on cells (human) (UniProt Q9NZU0); test: flow cytometry (AF647 MFI), FLRT3-293T-OKT3 cells, antibody titration
[15] = target: T2, mouse FLRT3 on transiently transfected 293T cells (mouse); test: flow cytometry (AF647 MFI), transiently transfected mFLRT3-293T cells
[16] = target: human FLRT3 on cells (human) (UniProt Q9NZU0); test: flow cytometry on A549 cells, MFI normalised to % of maximal response
[17] = target: T3, FLRT3-Fc (Homo sapiens (Human)) (UniProt Q9NZU0); test: competition ELISA: FLRT3-Fc binding to coated UNC5A with titrated antibody
T3 sequence (chain, biotin label in Example 8 (site not stated)): T1 sequence

[18] = target: T3, FLRT3-Fc (Homo sapiens (Human)); test: competition ELISA: FLRT3-Fc binding to coated UNC5B with titrated antibody
[19] = target: T3, FLRT3-Fc (Homo sapiens (Human)); test: competition ELISA: FLRT3-Fc binding to coated UNC5C with titrated antibody
[20] = target: T3, FLRT3-Fc (Homo sapiens (Human)); test: competition ELISA: FLRT3-Fc binding to coated UNC5D with titrated antibody
[21] = target: human FLRT3 on cells (human) (UniProt Q9NZU0); test: non-linear regression fit of the normalised flow cytometry data, A549 cells
[22] = target: human FLRT3 on cells (human) (UniProt Q9NZU0); test: flow cytometry on 293T-hFLRT3 cells, MFI normalised to % of maximal response
[23] = target: human FLRT3 on cells (human) (UniProt Q9NZU0); test: non-linear regression fit of the normalised flow cytometry data, 293T-hFLRT3 cells
[24] = target: T3, FLRT3-Fc (Homo sapiens (Human)); test: competition ELISA: FLRT3-Fc biotin binding to coated Unc5B-Fc with titrated antibody
[25] = target: T3, FLRT3-Fc (Homo sapiens (Human)); test: competition ELISA: Unc5B-Fc biotin binding to coated FLRT3-Fc with titrated antibody
[26] = target: T3, FLRT3-Fc (Homo sapiens (Human)); test: flow cytometry competition: FLRT3-Fc binding to Unc5B on cells with titrated antibody

Measured: binding

B1: 14B7 (antibody, V domains shown)
VH: QVQLQQSGPELVKPGASVNISCKASGYAFGNSWMNWVKQRPGKGLEWIGWIYPGDGNANYNGKFKGKATLTADKSSSTAYMQLSSLTSEDSAVYFCARALYDYDGWFAYWGQGTLVTVSA
VL: DIQMNQSPSSLSASLGDTITIACRASQNIDIWLSWYQQKPGSIPKLLIYKASNLHTGVPSRFSGSGSGTDFTLTISSLQPEDIATYYCLQGQSFPFTFGSGTKLEIK
binds: all assays above

B2: 17A1 (antibody, V domains shown)
VH: EVQLQQSGPELVKPGASVKMSCKASGYTFTDYYMNWVKQSHGKSLEWIGRVNPSNGGTTYNQKFKGKATLTVDKSLSTAYMQLNSLTSEDSAVYYCARNFLMDYWGQGTSVTVSS
VL: DIVMTQSHKFMSTSVGDRVSITCKASQDVGTAVAWYQQKPGQSPKLLIYWASTRHTGVPDRFTGSGSGTDFALTISNVQSADLAYYFCQQYSNYPTFGGGTKLEIK
binds: [2]
